Consider one sequence from paper PMC9733932.

Data set [1] deals with CtINO80 A-module Arp8.1 N34A,Q35A,K36A,N37A,Y38A,K44A (Chaetomium thermophilum). As to the kind of experiment: fluorescence anisotropy. The note with it: 2 mM Mg2+, sliding defect not explained by simple affinity loss; FA: 25 mM Hepes pH 8, 100 mM KCl, 2 mM MgCl2, 2% glycerol, 0.01% Triton X-100, 1 mM DTT, 5 nM DNA, room temp; recombinant protein; protein details: FLAG on Ino80; label: 5' 6-FAM on strand 1. A general note: Fluorescence polarisation rises when a labelled molecule tumbles more slowly, as on binding a larger partner.

The test system of data set [2] is CtINO80 A-module Arp8dN (Chaetomium thermophilum). As to the kind of experiment: fluorescence anisotropy. The note with it: 2 mM Mg2+; FA: 25 mM Hepes pH 8, 100 mM KCl, 2 mM MgCl2, 2% glycerol, 0.01% Triton X-100, 1 mM DTT, 5 nM DNA, room temp; recombinant protein; protein details: FLAG on Ino80; label: 5' 6-FAM on strand 1.

Construct, isoform or probe ends are uncertain for at least one entry. For some assays here: Weaker means in comparison with the reference protein, sequence or condition of that experiment. For some assays here: At least one verdict rests on a figure or table, not on a statement of the authors.

Turning to “AATTGGTCGTAGCAAGCTCTAGCACCGCTTAAACGCACGTACGCGCTGTC (double strand) [50-bp anisotropy DNA]”, the binding result is on record as “binds” in data set [1] and “binds more weakly” in data set [2].
